Results published in patent publication US20150352100A1, “USE OF SELECTIVE DELTA-OPIOID RECEPTOR ANTAGONISTS AND SPECIFIC SENSORY RECEPTOR LIGANDS” (priority 2013, published 2015).
For part of these data: For at least one compound, name, drawing or mass did not settle the structure. Some results were stated once for a whole list of compounds, not compound by compound.

Legend:
TAS2R14 [1] = target: T1, TAS2R14 (Homo sapiens, UniProt Q9NYV8); assay: Calcium imaging (Fluo4-AM) of keratinocytes with TAS2R14 ligands; type: cell-based; conditions: human primary keratinocytes and nTERTs
T1 construct: This has allowed functional studies of TAS2R14 to be carried out in a native setting; endogenous in cells; host or cells: human primary keratinocytes and N/TERT immortalised human keratinocytes
T1 sequence (Q9NYV8 1-317): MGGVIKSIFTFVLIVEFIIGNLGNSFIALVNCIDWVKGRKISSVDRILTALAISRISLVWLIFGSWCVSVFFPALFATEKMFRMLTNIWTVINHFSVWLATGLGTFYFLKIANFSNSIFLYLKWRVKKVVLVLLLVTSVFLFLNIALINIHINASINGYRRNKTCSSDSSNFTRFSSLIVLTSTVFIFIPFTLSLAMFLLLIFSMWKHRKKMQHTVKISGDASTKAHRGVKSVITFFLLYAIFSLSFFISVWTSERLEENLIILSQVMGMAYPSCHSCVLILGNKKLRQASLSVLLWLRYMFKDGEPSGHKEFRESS
Protocol: (§1) Maximal increases in fluorescence were generated in each recording by addition of the ionophore ionomycin at 1 μM, and calcium responses were calculated as percentages compared to maximal ionomycin signal.

TAS2R14 [2] = assay: as above; type: cell-based, human; conditions: human skin cells, suramin 100 μM
Protocol: as §1

Compound | cut-off of all or nothing concentration/response relationship in calcium responses (TAS2R14 [1]) [mM] | effect of blocker on calcium responses to thujone and FFA (TAS2R14 [2]) | effect of blocker on calcium responses to thujone and FFA (TAS2R14 [2]; listed as Cyclopiazonic acid)
CC(C)[C@]12CC(=O)[C@H](C)[C@H]1C2 [thujone, α-thujone] | 1 to 3 | – | –
CC(=O)C1=C(O)[C@@H]2[C@H]3c4c[nH]c5cccc(c45)C[C@H]3C(C)(C)N2C1=O [cyclopiazonic acid] | – | significantly attenuated | affected the calcium responsiveness
